PubChem BioAssay AID1224829 | NIAID, 2016

- Purpose: 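Genes needed for LPS-driven NF-kappaB p65 nuclear entry in mouse macrophages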 (follow-up of hits)
- System: mouse RAW264.7 G9 macrophage reporter cells
- Knock-down reagent: single siRNA against mouse genes, 100 nM
- Duration: 2 days of siRNA knock-down, then 40 min of LPS before fixing
- Conditions: LPS (Salmonella minnesota R595) at 10 ng/ml
- Measured: 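High-content images after 40 min LPS exposure; GFP-p65 nucleus to surrounding ring signal ratio, normalised to plate median and non-targeting control wells, expressed as z-score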
- Scale: p65 translocation z-score: higher = more nuclear NF-kappaB p65 after LPS
- Call rule: 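Active means the replicate-mean z-score lies beyond plus or minus 2, in either direction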
- Meaning of the calls: active = changed p65 translocation (either direction); inactive = no clear change
This is a random part of about 3,800 deposited reagents. 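Calls cover raised and lowered translocation; gene median uses one vendor's three siRNAs; qiagen siRNAs acted more weakly than ambion siRNAs.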 Entries without a mark were called inactive. Reagents against one gene are numbered here. Further read-outs or replicates are left out here.

Slc16a11 (GeneID 216867) #1, siRNA vendor or control pool ambion single siRNA
- p65 translocation z-score, replicate mean: -2.48 (active)

Slc16a11 (GeneID 216867) #2, siRNA vendor or control pool ambion single siRNA
- p65 translocation z-score, replicate mean: -0.432

Slc16a11 (GeneID 216867) #3, siRNA vendor or control pool ambion single siRNA
- p65 translocation z-score, replicate mean: -2.81 (active)

Slc16a11 (GeneID 216867) #4, siRNA vendor or control pool qiagen single siRNA
- p65 translocation z-score, replicate mean: 2.65 (active)

Slc16a11 (GeneID 216867) #5, siRNA vendor or control pool qiagen single siRNA
- p65 translocation z-score, replicate mean: 2.76 (active)

Slc16a11 (GeneID 216867) #6, siRNA vendor or control pool qiagen single siRNA
- p65 translocation z-score, replicate mean: -0.197

Psmb5 (GeneID 19173) #1, siRNA vendor or control pool ambion single siRNA
- p65 translocation z-score, replicate mean: 3.5 (active)

Psmb5 (GeneID 19173) #2, siRNA vendor or control pool ambion single siRNA
- p65 translocation z-score, replicate mean: -0.642

Psmb5 (GeneID 19173) #3, siRNA vendor or control pool ambion single siRNA
- p65 translocation z-score, replicate mean: -3.01 (active)

Psmb5 (GeneID 19173) #4, siRNA vendor or control pool qiagen single siRNA
- p65 translocation z-score, replicate mean: 1.92

Psmb5 (GeneID 19173) #5, siRNA vendor or control pool qiagen single siRNA
- p65 translocation z-score, replicate mean: -0.836

Psmb5 (GeneID 19173) #6, siRNA vendor or control pool qiagen single siRNA
- p65 translocation z-score, replicate mean: -2.24 (active)

Entries above marked active (7):
Slc16a11 (GeneID 216867) #1, siRNA vendor or control pool ambion single siRNA
- p65 translocation z-score, replicate mean: -2.48 (active)

Slc16a11 (GeneID 216867) #3, siRNA vendor or control pool ambion single siRNA
- p65 translocation z-score, replicate mean: -2.81 (active)

Slc16a11 (GeneID 216867) #4, siRNA vendor or control pool qiagen single siRNA
- p65 translocation z-score, replicate mean: 2.65 (active)

Slc16a11 (GeneID 216867) #5, siRNA vendor or control pool qiagen single siRNA
- p65 translocation z-score, replicate mean: 2.76 (active)

Psmb5 (GeneID 19173) #1, siRNA vendor or control pool ambion single siRNA
- p65 translocation z-score, replicate mean: 3.5 (active)

Psmb5 (GeneID 19173) #3, siRNA vendor or control pool ambion single siRNA
- p65 translocation z-score, replicate mean: -3.01 (active)

Psmb5 (GeneID 19173) #6, siRNA vendor or control pool qiagen single siRNA
- p65 translocation z-score, replicate mean: -2.24 (active)

Additional records:
Eif3b (GeneID 27979) #1, siRNA vendor or control pool ambion single siRNA
- p65 translocation z-score, replicate mean: -0.432

Eif3b (GeneID 27979) #2, siRNA vendor or control pool ambion single siRNA
- p65 translocation z-score, replicate mean: -3.58 (active)

Eif3b (GeneID 27979) #3, siRNA vendor or control pool ambion single siRNA
- p65 translocation z-score, replicate mean: -2.92 (active)

Eif3b (GeneID 27979) #4, siRNA vendor or control pool qiagen single siRNA
- p65 translocation z-score, replicate mean: 0.448

Eif3b (GeneID 27979) #5, siRNA vendor or control pool qiagen single siRNA
- p65 translocation z-score, replicate mean: 0.592

Eif3b (GeneID 27979) #6, siRNA vendor or control pool qiagen single siRNA
- p65 translocation z-score, replicate mean: -2.17 (active)

Pmaip1 (GeneID 58801) #1, siRNA vendor or control pool ambion single siRNA
- p65 translocation z-score, replicate mean: 3.54 (active)

Pmaip1 (GeneID 58801) #2, siRNA vendor or control pool ambion single siRNA
- p65 translocation z-score, replicate mean: -0.152

Pmaip1 (GeneID 58801) #3, siRNA vendor or control pool ambion single siRNA
- p65 translocation z-score, replicate mean: -3.19 (active)

Pmaip1 (GeneID 58801) #4, siRNA vendor or control pool qiagen single siRNA
- p65 translocation z-score, replicate mean: 0.468

Pmaip1 (GeneID 58801) #5, siRNA vendor or control pool qiagen single siRNA
- p65 translocation z-score, replicate mean: 1.28

Pmaip1 (GeneID 58801) #6, siRNA vendor or control pool qiagen single siRNA
- p65 translocation z-score, replicate mean: 0.343
